Measurements taken from publication PMC7754455 (Journal of Clinical Pharmacology, 2020).
“And” between values parts separate entries of the source, which are not always exact repeats. Equal values may be shown once. Read-outs that look alike come from different tables or passages of the source.

Amino acid sequences for entries named in this document (tags omitted).
UniProt P08684, whole entry: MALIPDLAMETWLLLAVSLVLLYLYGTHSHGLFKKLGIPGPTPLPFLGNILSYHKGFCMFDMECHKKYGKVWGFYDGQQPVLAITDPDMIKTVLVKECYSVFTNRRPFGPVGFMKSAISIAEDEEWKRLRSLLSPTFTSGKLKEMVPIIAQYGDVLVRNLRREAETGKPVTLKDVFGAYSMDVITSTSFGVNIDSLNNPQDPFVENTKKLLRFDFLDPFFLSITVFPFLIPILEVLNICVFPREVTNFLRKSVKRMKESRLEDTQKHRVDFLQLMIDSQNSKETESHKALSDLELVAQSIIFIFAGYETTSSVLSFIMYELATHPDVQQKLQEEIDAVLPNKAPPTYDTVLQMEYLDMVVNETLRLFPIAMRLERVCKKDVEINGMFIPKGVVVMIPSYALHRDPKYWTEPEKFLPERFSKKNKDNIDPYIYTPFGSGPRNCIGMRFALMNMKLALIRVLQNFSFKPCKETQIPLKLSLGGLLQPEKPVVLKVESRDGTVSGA

Columns and labels:
[1] = biological target: CYP3A4 (Homo sapiens, UniProt P08684)
[2] = cited from earlier work; for Cmax, CV% Observed: patients BET115521, value (CV%), ref Piha‐Paul et al. 6
[3] = Safety and tolerability in the DDI study
[4] = Blood and plasma binding and permeability PBPK input parameters
[5] = Clinical DDI study part 2: plasma PK of molibresib alone and with rifampicin
[6] = Clinical DDI study part 1: plasma PK of molibresib alone and with itraconazole; conditions: for AUC / Cmax / Tmax / half-life: female, human, in vivo; for AUC: AUC0‐∞; for AUC / Cmax / half-life: geometric mean (CVb%); for Tmax: median (range)
[7] = cohort 1 of part 1, initial evaluation
[8] = 10 mg, part 1 cohort 1 n = 6, molibresib 10 mg alone
[9] = 10 mg, part 1 cohort 2 n = 7, molibresib 10 mg alone
[10] = part 1 cohort 1 n = 6, molibresib 5 mg + itraconazole
[11] = part 1 cohort 2 n = 7, molibresib 5 mg + itraconazole

## CCNC(=O)C[C@@H]1N=C(c2ccc(Cl)cc2)c2cc(OC)ccc2-n2c(C)nnc21 [Molibresib]
[1]; 7 CYP enzymes evaluated (CYP1A1, 2C9, 2C8, 2C19, 2D6, 2B6, 3A4)
  enzyme responsible for metabolism and generation of 2 major metabolites: CYP3A4 is the predominant enzyme
[1]; in vitro, azamulin (specific CYP3A4 inhibitor)
  inhibition of molibresib metabolism by azamulin: complete inhibition
other
  pKb: 7.49
[2]; 60 mg oral dose
  Cmax, CV% Observed: 889.5 (24.5) ng/mL
[2]; 100 mg oral dose
  Cmax, CV% Observed: 1081 (38.8) ng/mL
[2]; estimate from first-time in-patient study, ref BET115521
  CYP3A4 contribution to hepatic CL: 99%
[2]; patients, 2 to 125 mg once daily
  dose dependence of Cmax and AUC: dose‐proportional
[2]; single and repeat oral doses, patients
  time of maximum concentration (Cmax) after dosing: ≤ 2 h
[2]; used to set renal clearance in PBPK model, ref study BET115521
  dose excreted unchanged in urine over 24 hours: ~10%
[3]; molibresib administered alone, both parts
  subjects reporting AEs: 3 subjects
[3]; molibresib administered alone, part 1
  subjects reporting AEs: 1 subjects
[3]; molibresib administered alone, part 2
  subjects reporting AEs: 2 subjects
[3]; molibresib with itraconazole, part 1
  subjects reporting AEs: 3 subjects
[4]
  fraction unbound: 0.2
[4]; not told
  Papp: 8.4 ×10⁻⁶ cm/s
[5]; dose-normalized, part 2
  decrease in AUC0‐∞ with rifampicin coadministration: approximately 91%
  decrease in Cmax with rifampicin coadministration: ~80%
[5]; female, human, in vivo, 10 mg
  AUC: 669 ng·h/mL
  Cmax: 158 ng/mL
  Tmax: 0.52 h
  half-life: 5.8 h
[6]; [7]
  increase in AUC0‐∞ with itraconazole: 4 fold and 3.97 fold
  increase in Cmax with itraconazole: 48%
[6]; [8]
  AUC: 672 ng·h/mL
  Cmax: 167 ng/mL
  Tmax: 0.52 h
[6]; [9]
  AUC: 683 ng·h/mL
  Cmax: 176 ng/mL
  Tmax: 0.52 h
[6]; 10 mg, t1/2, part 1 cohort 1 n = 6, molibresib 10 mg alone
  half-life: 7.7 h
[6]; 10 mg, t1/2, part 1 cohort 2 n = 7, molibresib 10 mg alone
  half-life: 6.6 h
[6]; [10]
  AUC: 1330 ng·h/mL
  Cmax: 124 ng/mL
  Tmax: 1.5 h
[6]; [11]
  AUC: 1470 ng·h/mL
  Cmax: 161 ng/mL
  Tmax: 0.52 h
[6]; t1/2, part 1 cohort 1 n = 6, molibresib 5 mg + itraconazole
  half-life: 10.2 h
[6]; t1/2, part 1 cohort 2 n = 7, molibresib 5 mg + itraconazole
  half-life: 12.5 h
[6]; part 1 overall
  increase in AUC0‐∞ in the presence of itraconazole: 4.15 fold
  increase in Cmax in the presence of itraconazole: 66%
